Reference: PubChem BioAssay AID485314 (National Center for Advancing Translational Sciences (NCATS), 2010)
About 4,500 (1.3%) of roughly 340,000 compounds were called active. The shares of active, inactive and inconclusive entries below differ from those in the screen. The call rests on the fitted dose curve; in most records, active means well fitted inhibition curve with a large enough effect; inconclusive means small, poorly fitted or top-dose-only effect, or another doubt; inactive means no such curve, though single readings can be large or run the other way. Potencies beside an inconclusive call are fits to weak or partial responses and may not hold up.

Molecular target: DNA polymerase beta (Homo sapiens) (UniProt P06746)
Assay: qHTS Assay for Inhibitors of DNA Polymerase Beta
Settings: Pol beta primer extension/strand displacement, fluorescence kinetic; activity change, negative = inhibition: at 114 µM (top of the series)
Procedure, shortened: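 Human Pol beta at 10 nM; strand-displacement substrate 50 nM final. Compound exposure 15 min at room temperature before start, reaction 10 min at room temperature.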
On the % scale 0 is the no-effect control and ±100 the full control effect; potency means the concentration at half of the fitted maximal effect.

SMILES | Potency | activity change, negative = inhibition
O=c1ccc2[n+]([O-])c3ccc(O)cc3oc-2c1 | active: 63.1 µM | 
Cc1ccc(N(CC(=O)NC2CCCC2)C(=O)CCC(=O)Nc2nccs2)c(C)c1 | inconclusive: 39.8 µM [inhibitor, single point] | 
O=C(Nc1cccc(S(=O)(=O)NC2=NCCCCC2)c1)c1cc(-c2ccco2)nc2ccccc12 | active: 7.94 µM | 
Cc1[nH]n(-c2cccc3ccccc23)c(=O)c1C=Nc1ccc2[nH]c(=O)[nH]c2c1 | inconclusive: 25.1 µM [inhibitor, partial curve] | 
COc1ccc(OC)c(NC(=O)/C=C/c2ccccc2[N+](=O)[O-])c1 | inconclusive: 56.2 µM [inhibitor, partial curve, poor fit] | 
CCOc1ccc(OCc2ccc(C(=O)O)o2)cc1 | active: 14.1 µM | 
CC(C)c1ncc(S(=O)(=O)c2ccc(C(F)(F)F)cn2)c(N)n1 | inconclusive: 63.1 µM [inhibitor, single point] | 
O=C(c1ccc2c(c1)N(Cc1ccc(F)cc1)C(=O)c1ccccc1S2=O)N1CCC(Cc2ccccc2)CC1 (stereo unspecified) | inconclusive: 11.2 µM [inhibitor, partial curve] | 
Cc1nc2ccccn2c1C(=O)N/N=C/c1ccccc1[N+](=O)[O-] |  | inactive: 3.99%
CCCCC(CC)CNC(=O)CN1C(=O)CSc2ccc(S(=O)(=O)N3CCOCC3)cc21 (stereo unspecified) |  | inactive: -3%
N=C1/C(=C\c2ccc(-c3cc(Cl)cc(Cl)c3)o2)C(=O)N=C2SC=C(c3ccccc3)N12 |  | inactive: -20.2%
CCOc1ccccc1N(CC)C(=O)c1cc2c(=O)[nH]c3ccc(C)cc3c2s1 |  | inactive: 7.95%
CCOCCc1nnc(NC(=O)c2cc(OC)c(OC)cc2[N+](=O)[O-])s1 | inconclusive: 22.4 µM [inhibitor, partial curve, poor fit] | 
O=C(O)C1C2C=CC(C2)C1C(=O)NCc1cccs1 (stereo unspecified) | inconclusive: 14.1 µM [inhibitor, full curve, poor fit] | 
COc1ccc2nc(-c3cccc(N)c3)[nH]c2c1 | inconclusive: 35.5 µM [inhibitor, partial curve, poor fit] | 
COC(=O)c1ccc(Oc2c(Cl)cccc2[N+](=O)[O-])cc1 | inconclusive: 89.1 µM [inhibitor, single point] | 
COC(=O)c1c(NC(=O)COC(=O)c2ccc(NC(=O)CC#N)cc2)sc2c1CCCCC2 | active: 8.91 µM | 
CCOc1cccc(-c2c(C(=O)N/N=C/c3ccc(Br)cc3)nnn2-c2nonc2N)c1 | inconclusive: 2.82 µM [inhibitor, partial curve, poor fit] | 
CC(C)(C)C(=O)COC(=O)c1c2c(nc3ccccc13)CCC2 | active: 17.8 µM | 
CC1c2nc3ccccc3n2C(CC(=O)NCCCN2CCOCC2)C(=O)N1Cc1ccccc1 (stereo unspecified) | inconclusive: 4.47 µM [inhibitor, single point] | 
O=C(N/N=C/c1cccs1)C(=O)N1CCCC1 | inconclusive: 39.8 µM [inhibitor, single point] | 
CCn1c2ccccc2c2cc(N=C3SC(CC(=O)Nc4ccccc4OC)C(=O)N3CCOC)ccc21 (stereo unspecified) | inconclusive: 2.51 µM [inhibitor, full curve, poor fit] | 

SMILES | Potency | activity change, negative = inhibition
Cc1ccc(CNC(=O)CN(C)S(=O)(=O)c2cccc3nsnc23)cc1 | inconclusive: 89.1 µM [inhibitor, single point] | 
CCOc1nc2cnccc2n(CC(=O)Nc2cccc(C)c2C)c1=O | inconclusive: 0.355 µM [inhibitor, full curve, poor fit] | 
CCN(c1cccc(C)c1)S(=O)(=O)c1ccc2[nH]cc(C(=O)NCCCOC)c(=O)c2c1 | inconclusive: 14.1 µM [inhibitor, single point] | 
NS(=O)(=O)c1ccc(NC(=O)COC(=O)c2ccc3c(c2)OCCO3)cc1 | inconclusive: 89.1 µM [inhibitor, single point] | 
CCOc1ccc(S(=O)(=O)Nc2ccc(C(=O)NN)cc2)cc1 |  | inactive: 20.2%
COc1ccc(C(=O)CSc2nnc(CNC(=O)c3ccccc3F)n2C)cc1OC |  | inactive: 52.6%
Cc1ccccc1NC(=O)CSc1nc2ccccc2c2nc(CCn3cncc3C)nn12 | inconclusive: 39.8 µM [inhibitor, partial curve, poor fit] | 
CCCn1nnc(NC(=S)NC(=O)/C=C/c2ccco2)n1 | inconclusive: 10 µM [inhibitor, full curve, poor fit] | 
CC(C)(C)N1NC2(CCCCC2)NC1=S |  | inactive: 9.25%
NC(=O)COc1ccc(/C=N\NC(=O)c2ccc(-c3ccccc3)cc2)cc1 | inconclusive: 10 µM [inhibitor, full curve, poor fit] | 
O=C(O)C1CSC(c2ccco2)N1 (stereo unspecified) | active: 8.91 µM | 
O=C(Cc1ccccc1)NNC(=S)NC(=O)c1cccs1 | inconclusive: 10 µM [inhibitor, partial curve] | 
CC(C)c1ccc(C2NC(=O)c3n[nH]c(-c4cccs4)c32)cc1 (stereo unspecified) | inconclusive: 44.7 µM [inhibitor, partial curve] | 
CCOc1ccc(CCNC(=O)CS(=O)(=O)Cc2nc(-c3ccc(OC)cc3)oc2C)cc1 | inconclusive: 7.08 µM [inhibitor, full curve, poor fit] | 
COc1ccc(Cn2c(=O)n(Cc3ccco3)c(=O)c3oc4ccccc4c32)cc1 | inconclusive: 0.1 µM [inhibitor, full curve, poor fit] | 
Cc1nc2scc(C)n2c(=O)c1S(=O)(=O)NCC1CCN(Cc2ccc(F)cc2)CC1 |  | inactive: 3.31%
O=C1NC(=S)S/C1=C\c1ccc2ccccc2c1 |  | inactive: 28.3%
Cc1cc(C(=O)OCC(=O)c2ccc(Cl)c([N+](=O)[O-])c2)c2cccc(C)c2n1 | inconclusive: 35.5 µM [inhibitor, single point] | 
CC(C)N(C(=O)COC(=O)[C@@H]1CC(O)CN1S(=O)(=O)c1ccc(C(C)(C)C)cc1)C(C)C (stereo partly specified) |  | inactive: -2.56%
Cc1ccc(Cn2c(C)c3cnn(CC(=O)NCc4ccccc4)c(=O)c3c2C)cc1 | inconclusive: 89.1 µM [inhibitor, single point] | 
O=C(O)COc1ccccc1/C=N/Nc1ccc(S(=O)(=O)Nc2ccc(Cl)cc2)cc1[N+](=O)[O-] | inconclusive: 89.1 µM [inhibitor, single point] | 
CCN(CC)c1ccc(NC(=O)c2cnn(-c3ccccc3)c2-n2cccc2)c(C)c1 |  | inactive: 13.9%

Entries from the list above that have an aryl thioether with sulfur outside any ring (two):
SMILES | Potency | activity change, negative = inhibition
COc1ccc(C(=O)CSc2nnc(CNC(=O)c3ccccc3F)n2C)cc1OC |  | inactive: 52.6%
Cc1ccccc1NC(=O)CSc1nc2ccccc2c2nc(CCn3cncc3C)nn12 | inconclusive: 39.8 µM [inhibitor, partial curve, poor fit] | 

(more compounds)

SMILES | Potency | activity change, negative = inhibition
O=C(Nc1nnc(SCc2cccnc2)s1)C1CC(=O)N(c2ccccc2)C1 (stereo unspecified) | inconclusive: 5.62 µM [inhibitor, single point] | 
O=C(Nc1ccccc1Cc1ccccc1)c1ccccc1NS(=O)(=O)c1ccc(Cl)s1 | inconclusive: 79.4 µM [inhibitor, single point] | 
O=C(CSc1nnc(CNC(=O)c2ccccc2)o1)NCC1CCCO1 (stereo unspecified) | inconclusive: 39.8 µM [inhibitor, single point] | 
CCN(Cc1ccccc1)CC(O)COC(c1ccc(OC)cc1)c1ccc(OC)cc1 (stereo unspecified) | inconclusive: 89.1 µM [inhibitor, single point] | 
CC(=O)Nc1cccc(-n2nnc(SCC(=O)Nc3ccc(F)c(Cl)c3)n2)c1 | inconclusive: 39.8 µM [inhibitor, single point] | 
NC(=O)COc1cccc(/C=N/NC(=O)c2ccc(-n3cccc3)cc2)c1 |  | inconclusive: -74.6% [inhibitor]
COc1ccc(C(=O)C2CCN(CC(=O)Nc3ccc(C)cc3)CC2)cc1 | inconclusive: 0.562 µM [inhibitor, single point] | 
CCOc1ccc(NC(=O)CCc2c(C)nn(-c3ccc(N4CCCC4)nn3)c2C)cc1 | inconclusive: 39.8 µM [inhibitor, single point] | 
CCCCCCCCCCCCCCCC[n+]1cccc(C(=O)N(CC)CC)c1 |  | inactive: 48.6%
O=C(O)/C(=C\c1ccc(F)cc1)c1ccc(-c2ccccc2)cc1 | inconclusive: 89.1 µM [inhibitor, single point] | 
C(=C\c1ccccc1)/CSc1nnc(-c2ccccn2)n1Cc1ccco1 | inconclusive: 2.24 µM [inhibitor, partial curve, poor fit] | 
CC(=O)Nc1ccc(S(=O)(=O)Nc2c(C)nn(-c3ccccc3)c2C)cc1 | inconclusive: 0.794 µM [inhibitor, full curve, poor fit] | 
Cc1ccc(S(=O)(=O)c2ccc([N+](=O)[O-])cn2)cc1 |  | inactive: 13.7%
CC1=CC2=NC(=O)/C(=C\c3ccc(-c4cccc(Cl)c4)o3)C(=N)N2O1 | inconclusive: 35.5 µM [inhibitor, partial curve, poor fit] | 
COc1cc(/C=N/NC(=O)c2cccc(C(=O)N/N=C/c3ccc(O)c(OC)c3)n2)ccc1O | inconclusive: 8.91 µM [inhibitor, full curve, poor fit] | 
COc1ccc(CNCCCO)cc1OC | inconclusive: 0.708 µM [inhibitor, full curve, poor fit] | 
Cc1ccn2c(CNCC3OCCc4ccccc43)c(C(=O)N3CCCCCC3)nc2c1 (stereo unspecified) | inconclusive: 79.4 µM [inhibitor, single point] | 
O=C(Nc1cccc([N+](=O)[O-])c1)c1ccc(-c2ccccc2)cc1 |  | inactive: 35.8%
COc1ccc(OC)c(S(=O)(=O)N2Cc3ccccc3CC2C(=O)O)c1 (stereo unspecified) |  | inactive: -1.07%
O=C(Oc1nsnc1N1CCOCC1)c1ccccc1 | inconclusive: 0.501 µM [inhibitor, full curve, poor fit] | 
Cc1cc(C)c2c(c1)NC(C(=O)O)C1CC=CC21 (stereo unspecified) | inconclusive: 89.1 µM [inhibitor, single point] | 
CC(C)=CCC1=C(OCC(=O)O)C(=O)c2ccccc2C1=O | inconclusive: 0.708 µM [inhibitor, full curve, poor fit] | 

Two entries from above, as a markdown table:

| SMILES | Potency | activity change, negative = inhibition |
| --- | --- | --- |
| O=C1NC(=S)S/C1=C\c1ccc2ccccc2c1 |  | inactive: 28.3% |
| Cc1cc(C(=O)OCC(=O)c2ccc(Cl)c([N+](=O)[O-])c2)c2cccc(C)c2n1 | inconclusive: 35.5 µM [inhibitor, single point] |  |
